In assay [1] the target is T1, Flag-Firefly luciferase-Yki2 (Yorkie isoform with two WW domains, includes exon 3) (Drosophila) (UniProt Q45VV3).
T1 sequence: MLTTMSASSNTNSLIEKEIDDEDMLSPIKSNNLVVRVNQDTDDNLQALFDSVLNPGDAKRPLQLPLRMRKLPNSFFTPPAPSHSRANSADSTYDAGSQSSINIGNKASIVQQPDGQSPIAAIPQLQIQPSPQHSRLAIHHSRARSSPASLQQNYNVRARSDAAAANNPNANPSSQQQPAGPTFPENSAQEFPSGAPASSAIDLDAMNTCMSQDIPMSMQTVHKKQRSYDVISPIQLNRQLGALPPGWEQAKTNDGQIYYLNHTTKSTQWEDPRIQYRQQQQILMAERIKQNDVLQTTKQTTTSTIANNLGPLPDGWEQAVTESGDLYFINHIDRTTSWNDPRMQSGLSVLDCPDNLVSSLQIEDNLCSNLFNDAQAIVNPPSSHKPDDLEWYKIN
Description: co-IP.

The target in assay [2] is Flag-Firefly luciferase-Yki1 (Yorkie isoform with a single WW domain, skips exon 3) (Drosophila). The experiment in a line: co-IP.

Results are given in words; binding and its absence hold for the method and conditions named. In cells and extracts the contact can be indirect. Binding can be weak; no strength is given. Tags and fused reporters may be left off the sequences shown.

“Tondu-domain-containing Growth Inhibitor fused to Renilla luciferase (Drosophila)”: the binding result in assay [1] is given as “binds”.
On the same count and under the same terms, to “Cabut fused to Renilla luciferase (Drosophila)” belongs “binds”.
“Renilla luciferase fused to Mor (Drosophila)”: the binding entry in assay [1] is recorded as “binds”.
Still for that read-out and setting: to “Renilla luciferase fused to WW domain binding protein 2 (Drosophila)” belongs “binds”; to “14.3.3 protein fused to Renilla luciferase (Drosophila)”, “binds”; to “NcoA6 fused to Renilla luciferase (Drosophila)”, “binds”.

B1: Hippo fused to Renilla luciferase (protein, UniProt Q8T0S6 1-669)
chain: MSEPEVTSVVDMKSPNISSSCSFFKLKKLSEESLLQPPEKVFDIMYKLGEGSYGSVYKAVHKESSSIVAIKLVPVESDLHEIIKEISIMQQCDSPYVVRYYGSYFKQYDLWICMEYCGAGSVSDIMRLRKKTLTEDEIATILSDTLQGLVYLHLRRKIHRDIKAANILLNTEGYAKLADFGVAGQLTDTMAKRNTVIGTPFWMAPEVIEEIGYDCVADIWSLGITALEMAEGKPPYGEIHPMRAIFMIPQKPPPSFREPDRWSTEFIDFVSKCLVKEPDDRATATELLEHEFIRNAKHRSILKPMLEETCAIREQQRANRSFGGVLAASQAKSLATQENGMQQHITDNAFMEDPGTLVPEKFGEYQQSSASDATMIAHAEQGVDEGTLGPGGLRNLSKAAAPAAASSAASPLDMPAVDSGTMVELESNLGTMVINSDSDDSTTAKNNDDQKPRNRYRPQFLEHFDRKNAGDGRGDEKPIATEYSPAAAEQQQQQQQQQQQQQQDEQHLASGANDLNNWEHNMEMQFQQISAINQYGLQQHQQQQQVLMAYPLMNEQLIALNNQPNLLLSNAAPMGQQGIPAAAPAQPPPAYQNQHMHTQSHAYVEGEFEFLKFLTFDDLNQRLCNIDHEMELEIEQLNKKYNAKRQPIVDAMNAKRKRQQNINNNLIKI
Regarding B1, the binding result in assay [2] was “binds”.

B2: Warts fused to Renilla luciferase (protein, UniProt Q9VA38 1-1105)
chain: MHPAGEKRGGRPNDKYTAEALESIKQDLTRFEVQNNHRNNQNYTPLRYTATNGRNDALTPDYHHAKQPMEPPPSASPAPDVVIPPPPAIVGQPGAGSISVSGVGVGVVGVANGRVPKMMTALMPNKLIRKPSIERDTASSHYLRCSPALDSGAGSSRSDSPHSHHTHQPSSRTVGNPGGNGGFSPSPSGFSEVAPPAPPPRNPTACSAATPPPPVPPTSQAYVKRRSPALNNRPPAIAPPTQRGNSPVITQNGLKNPQQQLTQQLKSLNLYPGGGSGAVVEPPPPYLIQGGAGGAAPPPPPPSYTASMQSRQSPTQSQQSDYRKSPSSGIYSATSAGSPSPITVSLPPAPLAKPQPRVYQARSQQPIIMQSVKSTQVQKPVLQTAVAPQSPSSASASNSPVHVLAAPPSYPQKSAAVVQQQQQAAAAAHQQQHQHQQSKPPTPTTPPLVGLNSKPNCLEPPSYAKSMQAKAATVVQQQQQQQQQQQQVQQQQVQQQQQQQQQQLQALRVLQAQAQRERDQRERDQRERERDQQKLANGNPGRQMLPPPPYQSNNNNNSEIKPPSCNNNNIQISNSNLATTPPIPPAKYNNNSSNTGANSSGGSNGSTGTTASSSTSCKKIKHASPIPERKKISKEKEEERKEFRIRQYSPQAFKFFMEQHIENVIKSYRQRTYRKNQLEKEMHKVGLPDQTQIEMRKMLNQKESNYIRLKRAKMDKSMFVKLKPIGVGAFGEVTLVSKIDTSNHLYAMKTLRKADVLKRNQVAHVKAERDILAEADNNWVVKLYYSFQDKDNLYFVMDYIPGGDLMSLLIKLGIFEEELARFYIAEVTCAVDSVHKMGFIHRDIKPDNILIDRDGHIKLTDFGLCTGFRWTHNSKYYQENGNHSRQDSMEPWEEYSENGPKPTVLERRRMRDHQRVLAHSLVGTPNYIAPEVLERSGYTQLCDYWSVGVILYEMLVGQPPFLANSPLETQQKVINWEKTLHIPPQAELSREATDLIRRLCASADKRLGKSVDEVKSHDFFKGIDFADMRKQKAPYIPEIKHPTDTSNFDPVDPEKLRSNDSTMSSGDDVDQNDRTFHGFFEFTFRRFFDDKQPPDMTDDQAPVYV
In the case of B2, the binding result in assay [2] is on record as “binds”.

B3: Ex fused to Renilla luciferase (protein, UniProt Q07436 1-1427)
chain: MRAFCTVSAPLEVCASSAEQLSPGSRFLALRLLGQQQPKTLYFLVDAKSRVREVYTQTCLHFATQGMLDTELFGLAVLIDGEYMFADPESKLSKYGPKSWRSSHTHGLDANGRPLLELHFRVQFYIESPFMLKDETSRHNYYLQLRHNILQRDLPREQAEQALVFLAGLALQADLGDAPPGTSNSKDDSGEETSASPSNGGRGLSATTTLPKISKRANERMLRLSTYVASTSKRETIPLPPSLPPNGADYYRIEDYLPSGLHTPWARSAMRACHREHLGMATAEAELLYIQQACSLHETINAHTYRMRLAKSEQGSGSAWFVVYAKGIKILGGESTNSSSNPETTTFLWPNITKLSFERKKFEIRSGESRITLYAASDEKNKLLLTLCKDTHQWSMKLAARLKEVSKREEEEAAESQRLHASYACSRSLLLPYKSKNEQRISVISSTSSNTTSGIVSDRVHSEDELEIMINTPPAPLAAPSTESLALAHLLDRPSVSRQTSSVGQMSLKDLEEQLAALSVRPQDASSNGATIVTNSSVQRNSMGTTANDSSTATDSPSSQHNIGSQCSSTCSTVVVTSPVNGAGASSSGAPIPVHSTSSSLELGFSHTAQNSALSETSPDDFLSTSAREETESVSGASGVYTLAHGAPPTETSGVYTMHSSELTGQSSEIAESEKSSHYGMFQPQKLEETHVQHSDSVDGKKKEDFRPRSDSNVSTGSSFRGDGSDPTDNKHSLLSAEELTNLIVGRGTYPSRKTVSSSLHSDCDYVTLPLGDQGEEEVDQPPAPPPPYSARHEKTGLCGPPIAKPIPKPIAVVAPKPDSPPCSPPVPPAPIPAPPPAIRRRDPPPYSISSKPRPTSLISVSSSAHPAPSAAGSMSSLKSEEVTARFITTRPQISILKAHTSLIPDGAKPSYAAPHHCSSVASSNGSVCSHQLSQQSLHNSNYAGGSQASLHHHHVPSHHRHSGSAAIGIVPYGLHKSTASLHHQQSCVLLPVIKPRQFLAPPPPSLPRQPPPPPPPNHPHLASHLYEREMARKQLELYQQQLYSDVDYVIYPIQDPAVSQQEYLDAKQGSLLAAMAQAAPPPPHHPYLAMQVSPAIYRSTPYLPLTLSTHSRYASTQNLSDTYVQLPGPGYSPLYSPSMASLCSSYEPPPPPPLHPAALAAAAAAGAGSSSSSMFARSRSDDNILNSLDLLPKGKRLPPPPPPPYVNRRLKKPPMPAPSEKPPPIPSKPIPSRMSPIPPRKPPTLNPHHANSPLTKTSSGAQWAGERPRPDLGLGLGLNRGNNSILAQLQASMVAQSHAQAQAQALDIALLREKSKHLDLPLISALCNDRSLLKQTKVVINPKTGQEMPTSSAQPSGATTNGVANSSAGAGTLSKARKGSTVSHRHPQDKLPPLPVQQLAEANNYVIDPAVMMKQQQQQQQHNKTS
For the molecule B3, the binding result in assay [2] is listed as “binds”.

B4: GAF fused to Renilla luciferase (protein, UniProt Q08605 1-582)
chain: MSLPMNSLYSLTWGDYGTSLVSAIQLLRCHGDLVDCTLAAGGRSFPAHKIVLCAASPFLLDLLKNTPCKHPVVMLAGVNANDLEALLEFVYRGEVSVDHAQLPSLLQAAQCLNIQGLAPQTVTKDDYTTHSIQLQHMIPQHHDQDQLIATIATAPQQTVHAQVVEDIHHQGQILQATTQTNAAGQQQTIVTTDAAKHDQAVIQAFLPARKRKPRVKKMSPTAPKISKVEGMDTIMGTPTSSHGSGSVQQVLGENGAEGQLLSSTPIIKSEGQKVETIVTMDPNNMIPVTSANAATGEITPAQGATGSSGGNTSGVLSTPKAKRAKHPPGTEKPRSRSQSEQPATCPICYAVIRQSRNLRRHLELRHFAKPGVKKEKKTTSGKKSSSGSSGSGSGALSSSGSVPQVQTVQSLHTLQGVQVKKDPDAQQQQQQQQQQQQQQQQQAMTVSGATGGQVQQQVQQVQQQVQQQQQQQQQQQQQLQHHQIIDSSGNITTATTSAQAAAAAQQQAAGQQQQLVAQSDGSESGAPLSIAQVQTLQGHQIIGNLNQVNITDFQQQQPQQQQQQQQQQQQQQQQQQQTQQTL
B4: the binding result in assay [2] was “binds”.

B5: Hth fused to Renilla luciferase (protein, UniProt O46339 1-487)
chain: MAQPRYDDGLHGYGMDSGAAAAAMYDPHAGHRPPGLQGLPSHHSPHMTHAAAAAATVGMHGYHSGAGGHGTPSHVSPVGNHLMGAIPEVHKRDKDAIYEHPLFPLLALIFEKCELATCTPREPGVQGGDVCSSESFNEDIAMFSKQIRSQKPYYTADPEVDSLMVQAIQVLRFHLLELEKVHELCDNFCHRYISCLKGKMPIDLVIDERDTTKPPELGSANGEGRSNADSTSHTDGASTPDVRPPSSSLSYGGAMNDDARSPGAGSTPGPLSQQPPALDTSDPDGKFLSSLNPSELTYDGRWCRREWSSPADARNADASRRLYSSVFLGSPDNFGTSASGDASNASIGSGEGTGEEDDDASGKKNQKKRGIFPKVATNILRAWLFQHLTHPYPSEDQKKQLAQDTGLTILQVNNWFINARRRIVQPMIDQSNRAVYTPHPGPSGYGHDAMGYMMDSQAHMMHRPPGDPGFHQGYPHYPPAEYYGQHL
With B5, the binding result in assay [2] is listed as “binds”.
